# Values from PubChem BioAssay AID1224826 (NIAID, 2016).
# Screen: 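Regulators of Tlr4 signalling leading to Tnf-alpha expression in macrophages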 (primary screen)
# System: RAW264.7 G9 macrophages from mouse bearing reporters for p65 (GFP) and the Tnf promoter (mCherry)
# Reagent: siRNA pool against mouse genes, 100 nM
# Time to read-out: 16 h of LPS stimulation, after 2 days of siRNA transfection
# Treatment: bacterial lipopolysaccharide (Salmonella minnesota R595), 10 ng/ml
# Measurement: 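Imaged Tnf reporter mCherry in nuclei, minus background, normalised per plate to the median and expressed as robust z-scores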
# Reading the numbers: Tnf reporter robust z-score: higher = stronger Tnf promoter reporter signal after LPS; Tnf reporter intensity: higher = stronger Tnf promoter reporter signal
# Active means: 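Called active when robust z-score is at most -1.3, matching the median of the Tlr4 knock-down control, or over 3; control wells and wells with under 50 cells never active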
# Calls: active = Tnf reporter clearly lowered or raised; inactive = no clear change in Tnf reporter
# In all, the deposit lists about 17,000 reagents; below is a part drawn at random. About 1,110 of them (6.6%) count as active. 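Active means lowered or raised reporter signal; replicate intensities are raw and not normalised per plate.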 Unmarked entries are inactive.
target,Tnf reporter robust z-score,fewer than 50 cells in well,"Tnf reporter intensity, replicate 1","Tnf reporter intensity, replicate 2"
Paqr9,-0.43,enough cells in well,182,72.3
St3gal3,2.39,enough cells in well,159,208
Ints6l,1.57,enough cells in well,245,248
Tas2r107,-0.02,enough cells in well,294,80.6
Dipk1a,,fewer than 50 cells per well; well left out of calls,303,96.3
Stk17b,1.39,enough cells in well,256,119
Pycr3,0.22,enough cells in well,342,214
Sgcg,-0.44,enough cells in well,258,167
Prss42,-0.12,enough cells in well,111,91
Vipr2,0.92,enough cells in well,321,126
Tyw2,0.45,enough cells in well,168,91
Mrps24,-0.62,enough cells in well,174,76.4
Sdccag8,-0.86,enough cells in well,123,58.6
Mrps12,0.61,enough cells in well,265,133
Mnx1,0.47,enough cells in well,231,258
Srsf12,3.74 (active),enough cells in well,214,236
Dnaaf11,1.34,enough cells in well,274,214
Def8,0.6,enough cells in well,174,236
Ccl7,1.1,enough cells in well,347,276
Pnliprp2,-0.74,enough cells in well,103,89.9
Ecd,0.26,enough cells in well,168,176
Sacs,-1.1,enough cells in well,137,59.2
Gtf2i,-0.41,enough cells in well,222,203
Lsm2,0.94,enough cells in well,211,226

Ordered by “Tnf reporter robust z-score” (descending): some entries from above
target,Tnf reporter robust z-score,fewer than 50 cells in well,"Tnf reporter intensity, replicate 1","Tnf reporter intensity, replicate 2"
Ccl7,1.1,enough cells in well,347,276
Ecd,0.26,enough cells in well,168,176
Pnliprp2,-0.74,enough cells in well,103,89.9
